PubChem BioAssay AID220 (DTP/NCI, 2004)
The list does not hold the whole screen: it gathers tests that were run many times, whatever their T/C, doses with no T/C, and many T/C values between a quarter and a half above the control. Other doses and runs of a compound stand elsewhere. T/C: endpoint of the treated group in % of that of the vehicle group. Schedule codes are those of the source, taken here to give the interval after Q, in days (D) or hours (H), and the number of doses after X. Some T/C values carry the count of animals alive at the toxicity check (mostly the fifth day); where none is given, no animal had died by that day. Some doses have a count of surviving animals in place of a T/C: the source files T/C as zero there, which appears to mark a toxic dose or a test without result, not a measured value. Survivors were counted at the toxicity check, usually on the fifth day, unless a day is given; later deaths do not show. Some doses were run more than once; their values stand side by side, smallest first.

System: CD8F1 mice, subcutaneous mammary adenocarcinoma, T/C%
Assay: NCI In Vivo Anticancer Drug Screen. Data for tumor model Mammary Adenocarcinoma CD8F1 (subcutaneous) in CD8F1
Details: higher T/C = larger tumour
Summary of the method: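 Mice carrying transplanted tumors received test compound, and survival or tumor size was recorded. Each value is the treated-group measurement divided by the corresponding measurement in vehicle-dosed controls.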

[1] = T/C endpoint: median tumor weight change, dose: 1000.0 mg/kg/injection, schedule: Q01DX001 (ip), vehicle: Klucel (hydroxypropylcellulose) (HPC)

In the case of CC(Cc1ccc(O)cc1)NCC(O)c1ccc(O)c(O)c1 (stereo not drawn), the T/C (T/C endpoint: median tumor weight (est.), dose: 100.0 mg/kg/injection, schedule: Q07DX005 (ip), vehicle: saline with Tween-80, evaluated on day 30) is reported as 149 % of control [9 of 10 alive].

With COc1cc2oc(=O)ccc2cc1[C@@H]1OC(=O)C2(C)O[C@@H]12 (stereo partly drawn) the T/C (T/C endpoint: median tumor weight (est.), dose: 1.88 mg/kg/injection, schedule: Q07DX005 (ip), vehicle: water, evaluated on day 30) was 127 % of control [9 of 10 alive].

With CC(=O)C(=O)O.CC(=O)C(=O)O.[NH-]C1CCCCC1[NH-].[Pt+2] (stereo not drawn) the survivor count (T/C endpoint: median tumor weight change, dose: 125.0 mg/kg/injection, schedule: Q01DX001 (ip), vehicle: dextrose) was 0 of 10 on day 34, the survivor count (T/C endpoint: median tumor weight change, dose: 250.0 mg/kg/injection, schedule: Q01DX001 (ip), vehicle: dextrose) was 1 of 10 on day 34 and the survivor count (T/C endpoint: median tumor weight change, dose: 500.0 mg/kg/injection, schedule: Q01DX001 (ip), vehicle: dextrose) was 0 of 10 on day 34. The survivor count (T/C endpoint: median tumor weight change, dose: 1000.0 mg/kg/injection, schedule: Q01DX001 (ip), vehicle: dextrose) was 0 of 10 on day 34.

With ClC1C(Cl)C(Cl)C(Cl)C(Cl)C1Cl (stereo not drawn) the survivor count [1] was 2 of 10 on day 32.

For C[C@@]1(CO)[C@H](O)CC[C@@]2(C)[C@H]1CC[C@H]1C[C@@H]3C[C@@]12CC[C@@]3(O)COC(=O)CN, the survivor count (T/C endpoint: median tumor weight change, dose: 150.0 mg/kg/injection, schedule: Q01DX001 (ip), vehicle: Klucel (hydroxypropylcellulose) (HPC)) was 6 of 10 on day 40, the survivor count (T/C endpoint: median tumor weight change, dose: 300.0 mg/kg/injection, schedule: Q01DX001 (ip), vehicle: Klucel (hydroxypropylcellulose) (HPC)) was 0 of 10 on day 28 and 1 of 10 on day 40 and the survivor count (T/C endpoint: median tumor weight change, dose: 600.0 mg/kg/injection, schedule: Q01DX001 (ip), vehicle: Klucel (hydroxypropylcellulose) (HPC)) was 0 of 10 on day 28. The survivor count (T/C endpoint: median tumor weight change, dose: 1200.0 mg/kg/injection, schedule: Q01DX001 (ip), vehicle: Klucel (hydroxypropylcellulose) (HPC)) was 0 of 10 on day 28, the survivor count (T/C endpoint: median tumor weight change, dose: 2400.0 mg/kg/injection, schedule: Q01DX001 (ip), vehicle: Klucel (hydroxypropylcellulose) (HPC)) was 0 of 10 on day 28 and the T/C (T/C endpoint: median tumor weight change, dose: 500.0 micrograms/kg/injection, schedule: Q01DX001 (ip), vehicle: saline + alcohol, evaluated on day 29) was 134 % of control.

C/C=C/C1=CC(=O)C(O)C1O (stereo not drawn) was tested, and the survivor count (T/C endpoint: median tumor weight (est.), dose: 360.0 mg/kg/injection, schedule: Q07DX005 (ip), vehicle: water) was 0 of 10 on day 30.

CCOC(=O)C(CC(C)C)NC(=O)C(Cc1ccc(N(CCCl)CCCl)cc1)NC(C)=O (stereo not drawn) was tested, and the survivor count (T/C endpoint: median tumor weight (est.), dose: 64.0 mg/kg/injection, schedule: Q07DX005 (ip), vehicle: saline with Tween-80) was 6 of 10 on day 30, the survivor count (T/C endpoint: median tumor weight (est.), dose: 128.0 mg/kg/injection, schedule: Q07DX005 (ip), vehicle: saline with Tween-80) was 2 of 10 on day 30 and 4 of 10 on day 30 and the survivor count (T/C endpoint: median tumor weight (est.), dose: 256.0 mg/kg/injection, schedule: Q07DX005 (ip), vehicle: saline with Tween-80) was 0 of 10 on day 30.

For NC(CNC(=O)CBr)C(=O)O (stereo not drawn), the survivor count (T/C endpoint: median tumor weight change, dose: 250.0 mg/kg/injection, schedule: Q01DX001 (ip), vehicle: water) was 0 of 10 on day 29, the survivor count (T/C endpoint: median tumor weight change, dose: 500.0 mg/kg/injection, schedule: Q01DX001 (ip), vehicle: water) was 0 of 10 on day 29 and the survivor count (T/C endpoint: median tumor weight change, dose: 1000.0 mg/kg/injection, schedule: Q01DX001 (ip), vehicle: water) was 0 of 10 on day 29.

In the case of COc1ccc2[nH]c3ccc4cc[n+](CCN5CCC(C6CCN(CC[n+]7ccc8ccc9[nH]c%10ccc(OC)cc%10c9c8c7)CC6)CC5)cc4c3c2c1, the survivor count (T/C endpoint: median tumor weight change, dose: 250.0 mg/kg/injection, schedule: Q01DX001 (ip), vehicle: Klucel (hydroxypropylcellulose) (HPC)) is reported as 6 of 10 on day 27, the survivor count (T/C endpoint: median tumor weight change, dose: 500.0 mg/kg/injection, schedule: Q01DX001 (ip), vehicle: Klucel (hydroxypropylcellulose) (HPC)) is reported as 0 of 10 on day 27 and the survivor count [1] is reported as 0 of 10 on day 27.

In the case of CCCCCCCCCCCCCCCCCC(=O)Nc1ccn(C2OC(CO)C(O)C2O)c(=O)n1 (stereo not drawn), the survivor count (T/C endpoint: median tumor weight (est.), dose: 180.0 mg/kg/injection, schedule: Q07DX005 (ip), vehicle: saline with Tween-80) is reported as 1 of 10 on day 30 and the survivor count (T/C endpoint: median tumor weight (est.), dose: 400.0 mg/kg/injection, schedule: Q07DX005 (ip), vehicle: suspension in saline) is reported as 1 of 10 on day 30.

For O=C1CN(CN2CCOCC2)C(=O)CN1CN1CCOCC1, the T/C (T/C endpoint: median tumor weight (est.), dose: 25.0 mg/kg/injection, schedule: Q07DX005 (ip), vehicle: saline, evaluated on day 30) was 147 % of control and the T/C (T/C endpoint: median tumor weight (est.), dose: 100.0 mg/kg/injection, schedule: Q07DX005 (ip), vehicle: saline, evaluated on day 30) was 128 % of control.

In the case of Cc1ccc(S(=O)(=O)NC(=S)S)cc1, the T/C (T/C endpoint: median tumor weight (est.), dose: 50.0 mg/kg/injection, schedule: Q07DX005 (ip), vehicle: saline with Tween-80, evaluated on day 30) is reported as 125 % of control [9 of 10 alive].
